# Source: PMC5675994
# Sequences of proteins named here, by UniProt entry; tags and fusion partners are left off. A change or cut given only in a name is not applied to a line headed by its entry. Residues count along the entry.
# UniProt Q07540: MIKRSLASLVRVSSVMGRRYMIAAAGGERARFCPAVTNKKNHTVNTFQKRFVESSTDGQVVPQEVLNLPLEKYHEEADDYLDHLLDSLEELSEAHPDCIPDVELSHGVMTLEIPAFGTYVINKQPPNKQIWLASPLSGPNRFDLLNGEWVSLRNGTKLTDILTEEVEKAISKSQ
# UniProt Q00711, residues 29-640: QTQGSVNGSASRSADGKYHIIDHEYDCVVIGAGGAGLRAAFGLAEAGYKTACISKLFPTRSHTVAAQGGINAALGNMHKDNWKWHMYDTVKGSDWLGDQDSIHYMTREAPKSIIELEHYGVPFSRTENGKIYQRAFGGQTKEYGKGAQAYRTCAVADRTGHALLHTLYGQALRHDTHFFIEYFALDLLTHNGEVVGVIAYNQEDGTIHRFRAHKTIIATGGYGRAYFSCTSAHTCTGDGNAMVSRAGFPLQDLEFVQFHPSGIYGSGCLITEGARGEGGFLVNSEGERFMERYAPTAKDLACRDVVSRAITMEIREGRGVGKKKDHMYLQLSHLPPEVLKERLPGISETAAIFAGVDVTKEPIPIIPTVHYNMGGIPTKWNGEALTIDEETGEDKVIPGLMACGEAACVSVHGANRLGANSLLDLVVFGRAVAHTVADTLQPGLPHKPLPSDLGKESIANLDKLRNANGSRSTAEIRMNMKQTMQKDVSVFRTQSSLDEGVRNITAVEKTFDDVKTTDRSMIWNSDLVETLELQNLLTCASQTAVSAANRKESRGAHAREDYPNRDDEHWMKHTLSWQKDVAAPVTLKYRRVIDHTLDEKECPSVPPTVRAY
# UniProt P39522, residues 21-585: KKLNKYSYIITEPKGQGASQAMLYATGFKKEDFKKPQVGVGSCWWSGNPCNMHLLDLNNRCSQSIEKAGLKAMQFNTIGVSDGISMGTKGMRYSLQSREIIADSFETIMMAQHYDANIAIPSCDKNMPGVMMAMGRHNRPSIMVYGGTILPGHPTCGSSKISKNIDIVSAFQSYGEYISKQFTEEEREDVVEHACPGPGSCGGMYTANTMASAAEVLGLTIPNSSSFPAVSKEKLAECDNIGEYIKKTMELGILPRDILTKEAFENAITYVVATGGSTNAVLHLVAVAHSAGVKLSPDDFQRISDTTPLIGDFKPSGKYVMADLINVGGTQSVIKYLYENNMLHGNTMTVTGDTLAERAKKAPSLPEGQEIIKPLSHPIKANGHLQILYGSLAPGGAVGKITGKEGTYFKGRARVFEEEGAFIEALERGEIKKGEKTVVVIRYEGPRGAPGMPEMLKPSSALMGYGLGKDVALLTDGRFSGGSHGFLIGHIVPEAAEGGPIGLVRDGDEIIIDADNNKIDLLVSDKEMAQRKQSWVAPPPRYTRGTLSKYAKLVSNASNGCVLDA
# UniProt P07260: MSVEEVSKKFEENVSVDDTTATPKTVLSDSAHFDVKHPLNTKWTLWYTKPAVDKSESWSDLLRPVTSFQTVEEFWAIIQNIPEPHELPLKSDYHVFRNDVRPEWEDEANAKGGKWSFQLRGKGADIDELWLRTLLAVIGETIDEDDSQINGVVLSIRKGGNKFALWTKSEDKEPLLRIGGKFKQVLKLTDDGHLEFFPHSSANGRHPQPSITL
# UniProt P43122, residues 31-407: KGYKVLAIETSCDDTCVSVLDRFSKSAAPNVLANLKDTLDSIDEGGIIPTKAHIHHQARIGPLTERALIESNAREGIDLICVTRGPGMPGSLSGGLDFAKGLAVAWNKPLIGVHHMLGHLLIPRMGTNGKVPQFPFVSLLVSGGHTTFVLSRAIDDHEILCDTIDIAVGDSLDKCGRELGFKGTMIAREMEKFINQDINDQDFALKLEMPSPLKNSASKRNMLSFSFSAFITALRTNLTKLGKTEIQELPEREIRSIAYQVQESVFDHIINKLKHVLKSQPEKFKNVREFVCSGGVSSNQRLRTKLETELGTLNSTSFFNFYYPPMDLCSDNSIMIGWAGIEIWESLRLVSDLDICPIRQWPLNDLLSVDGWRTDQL
# UniProt P00830, residues 34-511: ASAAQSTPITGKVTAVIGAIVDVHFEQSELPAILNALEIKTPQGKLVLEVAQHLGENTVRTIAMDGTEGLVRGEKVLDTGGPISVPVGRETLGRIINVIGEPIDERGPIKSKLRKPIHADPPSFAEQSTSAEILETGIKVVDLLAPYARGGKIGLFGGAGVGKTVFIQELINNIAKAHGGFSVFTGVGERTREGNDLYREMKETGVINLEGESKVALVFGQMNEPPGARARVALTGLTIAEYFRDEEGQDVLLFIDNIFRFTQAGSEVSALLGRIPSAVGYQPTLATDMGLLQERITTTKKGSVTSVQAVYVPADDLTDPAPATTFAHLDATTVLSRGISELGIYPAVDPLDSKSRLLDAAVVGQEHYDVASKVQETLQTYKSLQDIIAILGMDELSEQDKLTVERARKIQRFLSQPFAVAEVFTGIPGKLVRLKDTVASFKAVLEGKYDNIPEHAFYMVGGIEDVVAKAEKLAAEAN
# UniProt Q08732: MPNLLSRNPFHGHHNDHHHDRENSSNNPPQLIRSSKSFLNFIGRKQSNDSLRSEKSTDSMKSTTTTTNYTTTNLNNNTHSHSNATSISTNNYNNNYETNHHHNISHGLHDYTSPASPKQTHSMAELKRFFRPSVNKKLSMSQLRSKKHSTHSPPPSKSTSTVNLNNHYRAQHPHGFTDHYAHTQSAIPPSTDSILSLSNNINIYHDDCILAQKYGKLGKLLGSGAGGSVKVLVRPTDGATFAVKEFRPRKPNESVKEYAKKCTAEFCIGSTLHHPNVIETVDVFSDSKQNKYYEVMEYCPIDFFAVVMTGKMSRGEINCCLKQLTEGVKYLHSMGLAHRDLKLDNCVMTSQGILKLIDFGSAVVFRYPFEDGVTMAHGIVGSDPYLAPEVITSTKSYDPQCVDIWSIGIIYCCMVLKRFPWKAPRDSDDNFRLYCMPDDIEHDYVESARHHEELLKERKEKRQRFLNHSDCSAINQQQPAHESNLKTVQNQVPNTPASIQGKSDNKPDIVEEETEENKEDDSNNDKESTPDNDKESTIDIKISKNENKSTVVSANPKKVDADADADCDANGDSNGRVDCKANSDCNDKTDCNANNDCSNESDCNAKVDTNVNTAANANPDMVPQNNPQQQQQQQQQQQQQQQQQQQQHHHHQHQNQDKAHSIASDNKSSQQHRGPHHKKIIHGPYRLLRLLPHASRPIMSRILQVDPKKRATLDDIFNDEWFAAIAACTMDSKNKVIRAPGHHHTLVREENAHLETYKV
# UniProt P0CS90, residues 24-654: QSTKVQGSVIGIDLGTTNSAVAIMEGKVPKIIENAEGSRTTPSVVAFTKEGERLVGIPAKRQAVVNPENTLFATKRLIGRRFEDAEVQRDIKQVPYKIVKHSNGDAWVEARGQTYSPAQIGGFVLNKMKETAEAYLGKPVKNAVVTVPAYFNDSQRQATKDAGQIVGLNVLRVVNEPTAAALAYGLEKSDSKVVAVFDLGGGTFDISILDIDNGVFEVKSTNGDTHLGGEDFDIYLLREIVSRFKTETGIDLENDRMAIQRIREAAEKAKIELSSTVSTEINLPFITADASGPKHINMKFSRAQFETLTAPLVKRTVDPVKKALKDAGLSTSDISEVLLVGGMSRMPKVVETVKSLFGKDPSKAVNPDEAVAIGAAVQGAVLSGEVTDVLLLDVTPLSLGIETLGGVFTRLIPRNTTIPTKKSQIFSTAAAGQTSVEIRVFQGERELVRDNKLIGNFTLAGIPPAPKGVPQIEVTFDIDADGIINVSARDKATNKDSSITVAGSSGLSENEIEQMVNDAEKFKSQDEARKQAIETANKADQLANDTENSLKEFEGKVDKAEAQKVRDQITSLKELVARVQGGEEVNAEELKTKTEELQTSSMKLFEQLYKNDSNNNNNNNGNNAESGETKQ
# UniProt P02994: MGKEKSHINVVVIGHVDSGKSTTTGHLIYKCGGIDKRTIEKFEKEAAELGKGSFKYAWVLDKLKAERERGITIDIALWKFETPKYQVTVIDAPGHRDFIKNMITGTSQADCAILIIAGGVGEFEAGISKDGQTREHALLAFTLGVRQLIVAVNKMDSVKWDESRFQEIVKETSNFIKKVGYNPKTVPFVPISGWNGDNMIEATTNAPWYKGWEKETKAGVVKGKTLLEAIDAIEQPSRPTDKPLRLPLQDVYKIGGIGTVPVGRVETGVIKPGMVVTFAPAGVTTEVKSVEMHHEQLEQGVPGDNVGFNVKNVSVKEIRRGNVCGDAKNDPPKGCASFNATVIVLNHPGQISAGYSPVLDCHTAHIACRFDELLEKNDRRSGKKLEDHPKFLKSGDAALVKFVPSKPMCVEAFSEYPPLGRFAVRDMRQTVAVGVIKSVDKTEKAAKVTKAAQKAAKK
# UniProt P07251, residues 36-545: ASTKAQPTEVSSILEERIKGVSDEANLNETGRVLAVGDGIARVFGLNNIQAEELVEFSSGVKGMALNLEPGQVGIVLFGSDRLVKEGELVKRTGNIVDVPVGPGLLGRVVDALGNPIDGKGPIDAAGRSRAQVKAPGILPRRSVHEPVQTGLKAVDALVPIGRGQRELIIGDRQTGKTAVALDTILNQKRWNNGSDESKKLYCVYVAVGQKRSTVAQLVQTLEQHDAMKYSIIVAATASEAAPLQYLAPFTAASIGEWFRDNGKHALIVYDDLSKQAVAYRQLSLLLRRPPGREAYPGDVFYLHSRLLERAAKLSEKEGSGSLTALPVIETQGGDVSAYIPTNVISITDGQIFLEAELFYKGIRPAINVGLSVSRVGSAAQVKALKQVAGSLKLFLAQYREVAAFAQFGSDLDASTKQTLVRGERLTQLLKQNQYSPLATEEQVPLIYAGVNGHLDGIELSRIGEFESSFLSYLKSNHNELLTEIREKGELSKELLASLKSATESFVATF
# UniProt P00359: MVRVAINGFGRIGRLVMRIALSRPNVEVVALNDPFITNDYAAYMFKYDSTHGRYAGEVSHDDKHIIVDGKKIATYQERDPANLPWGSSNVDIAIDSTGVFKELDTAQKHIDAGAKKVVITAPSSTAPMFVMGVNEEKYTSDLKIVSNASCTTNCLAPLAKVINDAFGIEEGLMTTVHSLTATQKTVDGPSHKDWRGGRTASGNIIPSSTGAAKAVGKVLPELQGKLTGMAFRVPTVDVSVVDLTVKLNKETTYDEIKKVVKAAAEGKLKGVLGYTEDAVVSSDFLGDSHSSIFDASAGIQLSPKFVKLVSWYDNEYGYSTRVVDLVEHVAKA
# UniProt P50861: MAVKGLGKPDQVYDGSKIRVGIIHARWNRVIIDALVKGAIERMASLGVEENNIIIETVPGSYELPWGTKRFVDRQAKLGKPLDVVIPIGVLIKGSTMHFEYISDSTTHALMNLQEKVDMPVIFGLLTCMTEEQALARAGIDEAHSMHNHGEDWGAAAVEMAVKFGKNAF
# UniProt P40495, residues 23-371: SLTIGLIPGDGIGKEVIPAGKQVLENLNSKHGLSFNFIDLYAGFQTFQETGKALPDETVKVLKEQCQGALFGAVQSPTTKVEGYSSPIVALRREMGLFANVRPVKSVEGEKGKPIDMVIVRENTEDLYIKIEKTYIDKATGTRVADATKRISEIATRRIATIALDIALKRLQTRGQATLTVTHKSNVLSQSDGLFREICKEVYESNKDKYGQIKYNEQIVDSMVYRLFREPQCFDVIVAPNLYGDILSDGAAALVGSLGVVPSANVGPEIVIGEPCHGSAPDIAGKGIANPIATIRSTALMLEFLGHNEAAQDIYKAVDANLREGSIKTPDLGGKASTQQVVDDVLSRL
# UniProt P23292: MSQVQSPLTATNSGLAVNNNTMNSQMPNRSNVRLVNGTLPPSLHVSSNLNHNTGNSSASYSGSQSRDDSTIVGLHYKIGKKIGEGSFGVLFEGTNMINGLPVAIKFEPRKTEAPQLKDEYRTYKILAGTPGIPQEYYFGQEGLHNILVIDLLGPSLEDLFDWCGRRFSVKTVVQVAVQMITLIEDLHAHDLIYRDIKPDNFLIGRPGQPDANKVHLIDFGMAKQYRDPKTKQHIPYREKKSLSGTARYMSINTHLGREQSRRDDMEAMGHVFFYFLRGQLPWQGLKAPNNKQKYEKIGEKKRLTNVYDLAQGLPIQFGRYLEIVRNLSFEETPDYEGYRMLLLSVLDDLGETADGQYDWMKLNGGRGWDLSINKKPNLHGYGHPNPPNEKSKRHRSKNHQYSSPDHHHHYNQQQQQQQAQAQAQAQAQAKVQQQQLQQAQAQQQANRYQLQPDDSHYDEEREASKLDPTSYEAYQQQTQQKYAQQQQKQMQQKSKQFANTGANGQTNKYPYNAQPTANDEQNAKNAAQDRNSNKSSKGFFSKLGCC
# UniProt P00358: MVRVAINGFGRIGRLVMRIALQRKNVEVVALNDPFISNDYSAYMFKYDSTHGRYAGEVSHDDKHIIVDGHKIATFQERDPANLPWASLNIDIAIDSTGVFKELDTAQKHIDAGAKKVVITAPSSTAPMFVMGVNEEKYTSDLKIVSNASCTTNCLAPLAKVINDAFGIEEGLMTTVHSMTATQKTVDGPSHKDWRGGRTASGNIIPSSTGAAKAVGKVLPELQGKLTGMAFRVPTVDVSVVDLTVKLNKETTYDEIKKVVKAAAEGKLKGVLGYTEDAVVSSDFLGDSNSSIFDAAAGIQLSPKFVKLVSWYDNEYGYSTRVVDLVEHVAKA
# These are yes or no findings as the source states them, for the method shown. In cells and extracts the contact can be indirect. These calls come from enrichment with a bait or labelling near it, and not all partners need be listed. Sequences can lack the tags named with a protein.
# T1: Nfs1-His6 (S. cerevisiae) (UniProt P25374)
# T1 sequence: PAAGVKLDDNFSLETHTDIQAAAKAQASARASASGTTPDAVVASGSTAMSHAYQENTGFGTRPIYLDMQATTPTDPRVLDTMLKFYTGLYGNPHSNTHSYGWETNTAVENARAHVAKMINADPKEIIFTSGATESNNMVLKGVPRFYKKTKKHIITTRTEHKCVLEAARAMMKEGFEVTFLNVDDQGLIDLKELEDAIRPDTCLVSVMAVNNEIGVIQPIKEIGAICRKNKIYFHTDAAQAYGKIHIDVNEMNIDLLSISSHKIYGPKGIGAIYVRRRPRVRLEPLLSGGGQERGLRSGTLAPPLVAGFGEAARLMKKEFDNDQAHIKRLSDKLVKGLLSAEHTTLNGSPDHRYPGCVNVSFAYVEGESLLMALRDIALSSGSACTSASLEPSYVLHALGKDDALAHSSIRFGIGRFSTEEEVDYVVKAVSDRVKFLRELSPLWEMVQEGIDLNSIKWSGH
# How the values were obtained:
# [1] = molecular target: Yfh1-His6 (S. cerevisiae) (UniProt Q07540); test: affinity purification with mass spectrometry; Yfh1-His6 held on Ni-NTA superflow agarose from French-press lysate (108,000xg supernatant) of isolated mitochondria of the Yfh1-His6 yeast strain; 50 mM TrisCl pH 7.5, 80 mM KCl, 10% glycerol, wash 40 mM imidazole with 0.1% Triton X-100, elution 400 mM imidazole; eluate analysed by LC-MS/MS
# [2] = molecular target: T1, Nfs1-His6 (S. cerevisiae); test: affinity purification with mass spectrometry; Nfs1-His6 held on Ni-NTA superflow agarose from sonicated, cleared lysate of isolated mitochondria of the Gal-Nfs1-His6 yeast strain; 50 mM TrisCl pH 7.5, 80 mM KCl, 10% glycerol, wash 40 mM imidazole, elution 400 mM imidazole; eluate analysed by LC-MS/MS
binding [1],binding [2],Molecule
binds,binds,"Succinate dehydrogenase [ubiquinone] flavoprotein subunit, mitochondrial (from UniProt Q00711 29-640)"
binds,binds,"Dihydroxy-acid dehydratase, mitochondrial (from UniProt P39522 21-585)"
binds,binds,Eukaryotic translation initiation factor 4E (from UniProt P07260 1-213)
binds,binds,"tRNA N6-adenosine threonylcarbamoyltransferase, mitochondrial (from UniProt P43122 31-407)"
binds,binds,"ADP,ATP carrier protein 2 (from UniProt P18239 1-318)"
binds,binds,"ATP synthase subunit beta, mitochondrial (from UniProt P00830 34-511)"
binds,binds,Serine/threonine-protein kinase HRK1 (from UniProt Q08732 1-759)
binds,binds,"Heat shock protein SSC1, mitochondrial (from UniProt P0CS90 24-654)"
binds,binds,Glyceraldehyde-3-phosphate dehydrogenase 1 (from UniProt P00360 1-332)
binds,binds,Elongation factor 1-alpha (from UniProt P02994 1-458)
binds,binds,V-type proton ATPase catalytic subunit A;Endonuclease PI-SceI (from UniProt P17255)
binds,binds,Nucleoporin POM152 (from UniProt P39685 1-1337)
binds,binds,78 glucose-regulated protein homolog (from UniProt P16474 43-682)
binds,binds,"Heat shock protein 60, mitochondrial (from UniProt P19882 26-572)"
binds,binds,"ATP synthase subunit alpha, mitochondrial (from UniProt P07251 36-545)"
binds,binds,Heat shock protein SSA1 (from UniProt P10591 1-642)
binds,binds,Glyceraldehyde-3-phosphate dehydrogenase 3 (from UniProt P00359 1-332)
binds,binds,"6,7-dimethyl-8-ribityllumazine synthase (from UniProt P50861 1-169)"
binds,binds,"Homoisocitrate dehydrogenase, mitochondrial (from UniProt P40495 23-371)"
binds,binds,Casein kinase I homolog 2 (from UniProt P23292 1-546) (enzyme)
binds,binds,Glyceraldehyde-3-phosphate dehydrogenase 2 (from UniProt P00358 1-332)
binds,binds,Cerevisin (from UniProt P09232)
binds,binds,"Elongation factor Tu, mitochondrial (from UniProt P02992 39-437)"
binds,binds,"Mitochondrial metal transporter 2 (protein, UniProt Q08970 57-484) KEGQEEGYNEQLISKMSSQNGSNSRQNESEGKKEGKASSVKSLLQHTHSHSHTHMHDNPLLSLNVQQIKKNPGVRITWIGLASNVGMAVGKFVGGITFHSQALLADSVHALSDLVSDFLTLFSVQYASRKPTSEYPYGYGKVETVGSLAVSTILAMAGISIGWSSLCAIVGPVIPHAILESMAGLIGETHSHSQSLTQQATNVNAVWIAAGSILVKEWVFQATKKVAIQTNSNVLMANAWHHRVDSLTSLVALVAITSSYFFNIQSLDNLGGLVVSGLIIKTGGQGILSSLKELVDQSIPPTDPRYLEIESVIKDSIGSLKTDLDLKQSLHVRDLTILASGPNLRATTTLEVPVLHSGQEVGIRFLENAISTIREDLRMKVPNVGKVDVEFVDVTSDSKGDLEHSHDTKSTNHTHTHSDSADTHTHKH"
binds,binds,"UTP--glucose-1-phosphate uridylyltransferase (protein, UniProt P32861 1-499) MSTKKHTKTHSTYAFESNTNSVAASQMRNALNKLADSSKLDDAARAKFENELDSFFTLFRRYLVEKSSRTTLEWDKIKSPNPDEVVKYEIISQQPENVSNLSKLAVLKLNGGLGTSMGCVGPKSVIEVREGNTFLDLSVRQIEYLNRQYDSDVPLLLMNSFNTDKDTEHLIKKYSANRIRIRSFNQSRFPRVYKDSLLPVPTEYDSPLDAWYPPGHGDLFESLHVSGELDALIAQGREILFVSNGDNLGATVDLKILNHMIETGAEYIMELTDKTRADVKGGTLISYDGQVRLLEVAQVPKEHIDEFKNIRKFTNFNTNNLWINLKAVKRLIESSNLEMEIIPNQKTITRDGHEINVLQLETACGAAIRHFDGAHGVVVPRSRFLPVKTCSDLLLVKSDLFRLEHGSLKLDPSRFGPNPLIKLGSHFKKVSGFNARIPHIPKIVELDHLTITGNVFLGKDVTLRGTVIIVCSDGHKIDIPNGSILENVVVTGNLQILEH"
binds,–,"Malate dehydrogenase, mitochondrial (protein, UniProt P17505 18-334) YKVTVLGAGGGIGQPLSLLLKLNHKVTDLRLYDLKGAKGVATDLSHIPTNSVVKGFTPEEPDGLNNALKDTDMVLIPAGVPRKPGMTRDDLFAINASIVRDLAAATAESAPNAAILVISNPVNSTVPIVAQVLKNKGVYNPKKLFGVTTLDSIRAARFISEVENTDPTQERVNVIGGHSGITIIPLISQTNHKLMSDDKRHELIHRIQFGGDEVVKAKNGAGSATLSMAHAGAKFANAVLSGFKGERDVIEPSFVDSPLFKSEGIEFFASPVTLGPDGIEKIHPIGELSSEEEEMLQKCKETLKKNIEKGVNFVASK"
binds,binds,"Putative glucokinase-2 (protein, UniProt Q04409 1-500) MSFENLHKVNAEALEDAVVEICSSLQVDAAKLDELTAYFIECMEKGLNNTSVGEEKTVDKGLPMIPTYVTSLPNGTERGVLLAADLGGTHFRVCSVTLNGDGTFDMQQLKSKIPEEYLNDKDVTSEELFSYLGRRTRAFVRKHHPELLKSTGENIKPLKMGFTFSYPVDQTSLSSGTLIRWTKSFKIEDTVGKDVVRLYQEQLDIQGLSMINVVALTNDTVGTFLSHCYTSGSRPSSAGEISEPVIGCIFGTGTNGCYMEDIENIKKLPDELRTRLLHEGKTQMCINIEWGSFDNELKHLSATKYDIDIDQKFSPNPGYHLFEKRISGMYLGELLRNILVDLHARGLILGQYRNYDQLPHRLKTPFQLCSEVLSRIEIDDSTNLRETELSFLQSLRLPTTFEERKAIQNLVRSITRRSAYLAAVPIAAILIKTNALNKRYHGEVEIGFDGYVIEYYPGFRSMLRHALALSPIGTEGERKIHLRLAKDGSGVGAALCALVA"
